No constants are given. Whether binding was seen depends on the method and setting. In cells and extracts the contact can be indirect. Some results given as binding are weak or reduced against the parent protein; the word gives no strength. Where a sequence is shown, tags or fusion partners need not be part of it.
T1: FLAG-tagged LRR1 (human) (UniProt Q96L50)
T1 sequence: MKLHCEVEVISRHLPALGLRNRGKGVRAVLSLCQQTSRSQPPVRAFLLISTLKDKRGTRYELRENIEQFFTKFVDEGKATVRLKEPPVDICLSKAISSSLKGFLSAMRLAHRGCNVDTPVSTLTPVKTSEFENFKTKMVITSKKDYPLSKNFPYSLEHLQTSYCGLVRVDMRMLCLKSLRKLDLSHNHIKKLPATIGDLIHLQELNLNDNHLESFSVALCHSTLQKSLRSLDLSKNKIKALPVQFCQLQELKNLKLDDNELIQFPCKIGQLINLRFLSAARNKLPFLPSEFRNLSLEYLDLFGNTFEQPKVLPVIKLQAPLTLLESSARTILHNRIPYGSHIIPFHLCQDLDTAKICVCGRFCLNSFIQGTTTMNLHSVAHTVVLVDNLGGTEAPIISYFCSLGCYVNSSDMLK

Protein sequences, listed by entry. Tags and fused reporters are not part of them. Lines headed by an entry give the natural chain unless they say otherwise; changes in a name come on top.
UniProt Q9BRT9: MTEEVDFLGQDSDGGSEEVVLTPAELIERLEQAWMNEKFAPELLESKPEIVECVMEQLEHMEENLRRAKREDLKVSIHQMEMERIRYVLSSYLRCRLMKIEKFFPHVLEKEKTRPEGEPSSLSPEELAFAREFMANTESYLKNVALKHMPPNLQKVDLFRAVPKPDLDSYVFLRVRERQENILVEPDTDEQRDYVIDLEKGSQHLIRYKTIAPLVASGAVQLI
UniProt Q14691: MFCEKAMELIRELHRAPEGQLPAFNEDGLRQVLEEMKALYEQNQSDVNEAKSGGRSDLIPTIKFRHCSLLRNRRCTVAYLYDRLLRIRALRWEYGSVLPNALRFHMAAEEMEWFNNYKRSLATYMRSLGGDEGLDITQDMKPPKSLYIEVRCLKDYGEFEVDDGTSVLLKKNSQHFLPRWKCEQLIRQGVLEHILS
UniProt Q9Y248: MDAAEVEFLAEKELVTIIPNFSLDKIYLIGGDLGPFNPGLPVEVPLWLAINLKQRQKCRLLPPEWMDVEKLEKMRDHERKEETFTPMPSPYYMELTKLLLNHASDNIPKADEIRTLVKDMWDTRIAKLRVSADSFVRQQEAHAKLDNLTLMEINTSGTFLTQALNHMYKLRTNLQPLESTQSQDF
UniProt Q9BRX5: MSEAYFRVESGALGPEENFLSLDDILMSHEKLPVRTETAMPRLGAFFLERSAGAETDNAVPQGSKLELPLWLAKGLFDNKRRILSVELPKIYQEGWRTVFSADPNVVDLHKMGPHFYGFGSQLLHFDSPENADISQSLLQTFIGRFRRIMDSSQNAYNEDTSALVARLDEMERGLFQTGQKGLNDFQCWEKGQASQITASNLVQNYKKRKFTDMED

B1: FLAG-LRR1ΔVHL (protein, UniProt Q96L50)
chain: MKLHCEVEVISRHLPALGLRNRGKGVRAVLSLCQQTSRSQPPVRAFLLISTLKDKRGTRYELRENIEQFFTKFVDEGKATVRLKEPPVDICLSKAISSSLKGFLSAMRLAHRGCNVDTPVSTLTPVKTSEFENFKTKMVITSKKDYPLSKNFPYSLEHLQTSYCGLVRVDMRMLCLKSLRKLDLSHNHIKKLPATIGDLIHLQELNLNDNHLESFSVALCHSTLQKSLRSLDLSKNKIKALPVQFCQLQELKNLKLDDNELIQFPCKIGQLINLRFLSAARNKLPFLPSEFRNLSLEYLDLFGNTFEQPKVLPVIKLQACVCGRFCLNSFIQGTTTMNLHSVAHTVVLVDNLGGTEAPIISYFCSLGCYVNSSDMLK
B2: mAC-LRR1 (endogenous LRR1 tagged N-terminally with the mAC tag) (protein, UniProt Q96L50 1-414)
chain: T1 sequence

Tests used:
FLAG-tagged LRR1 (human) = target: T1, FLAG-tagged LRR1 (human); experiment: co-IP
[1] = target: GINS complex (SLD5, PSF1-3) (human (endogenous in U2OS and HCT116)) (UniProt Q9BRT9+Q14691+Q9Y248+Q9BRX5); experiment: co-IP

Molecule	binding (FLAG-tagged LRR1 (human))	binding [1]
GINS complex (SLD5, PSF1-3) (from UniProt Q9BRT9 1-223; Q14691 1-196; Q9Y248 1-185; Q9BRX5 1-216)	binds	–
B1	–	binds
B2	–	binds

Source: article doi:10.1101/2022.07.12.499744
